Data as given in patent US6379083B1, “Method for the remediation of soil contaminated with organic halide compounds” (Hazama Corporation, priority 1998, dated 2002).

Experiment: Remediation action of carbonic acid aqueous solution on practical contaminated soil (Example 4)
Conditions: well for observation

Q: For `ClC=C(Cl)Cl` [trichloroethylene], which TCE concentration (December 2nd, Pouring of water and CO2) is on record?
A: 0.53 mg/L

Q: What about the TCE concentration (December 11th, Pouring of water and CO2) of the same compound?
A: 0.30 mg/L

Q: And the TCE concentration (December 19th, Pouring of water and CO2)?
A: 0.22 mg/L

Q: And the TCE concentration (February 12th, Pouring of water and CO2 and termination)?
A: 0.035 mg/L

Q: And the TCE concentration (January 5th, Pouring of water and CO2)?
A: 0.18 mg/L

Q: And the TCE concentration (January 20th, Pouring of water)?
A: 0.057 mg/L

Q: And the TCE concentration (November 2nd, Pouring of water)?
A: 0.037 mg/L

Q: What about the TCE concentration (November 5th, Pouring of water) of the same compound?
A: 0.043 mg/L

Q: What about the TCE concentration (November 7th, Pouring of water) of the same compound?
A: 0.054 mg/L

Q: What about the TCE concentration (November 13th, Pouring of water and CO2) of the same compound?
A: 0.12 mg/L

Q: And the TCE concentration (November 20th, Pouring of water and CO2)?
A: 0.36 mg/L

Q: And the TCE concentration (November 26th, Pouring of water)?
A: 0.39 mg/L
